Measurements reported in PubChem BioAssay AID2685 (National Center for Advancing Translational Sciences (NCATS), 2010).
The other results are listed elsewhere or left out. These are further read-outs of the screen, such as a control signal, another cell line or another target. No call is given for them. Compounds called inactive in the main read-out are mostly missing here. Words in brackets tell the shape of the fitted curve; partial curves, single points and poor fits give uncertain potencies.

Assay: qHTS Assay for Lipid Storage Modulators in Drosophila S3 Cells;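 as to cell number change: cells counted by Cell Tracker Red CMTPX staining in the red channel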
Details: BODIPY lipid droplet fluorescence, 18-24 h; for cell number change: measured here: cell count max response, cells fed with added oleic acid
Outline: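 Drosophila S3 cells loaded with oleic acid (400 uM, as added) and compounds at several concentrations; lipid droplets imaged by 488-nm laser-scanning cytometry, 500–530 nm intensity and object ratio to cell channel. Percent activity normalized to 20 uM Triacsin C.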

[1] = measured here: lipid fluorescence (Fed channel) AC50, cells fed with added oleic acid
[2] = measured here: cell number channel AC50, cells fed with added oleic acid

Compound | cell number change [%] | AC50 [1] | AC50 [2]
Cc1csc(NC(=O)Cc2c(F)cccc2Cl)n1 | 10.6 | 6.51 µM [rising, single point] | 
COc1cc(/C=C/C(=O)OCC(=O)Nc2ccccc2Cl)cc(OC)c1OC |  | 0.058 µM [falling, partial curve, poor fit] | 2.31 µM [rising, single point]
Cc1ccc(Oc2cnc3ccccc3n2)cc1 | -28.6 |  | 
CCn1c(=O)cc(SCC(=O)NCCN2CCN(Cc3ccccc3)CC2)c2ccccc21 | 92.3 |  | 20.6 µM [rising, partial curve]
Cc1ccc(C2=NCCn3c2c2ccc([N+](=O)[O-])cc2[n+]3[O-])cc1 |  | 4.11 µM [falling, full curve] | 
COc1cccc(C(=O)NC(=S)Nc2ccc([N+](=O)[O-])cc2C)c1 | -32.1 | 1.64 µM [falling, partial curve, poor fit] | 1.84 µM [falling, full curve]
O=C(c1ccccc1)N1N=C(c2ccccc2)CC1c1ccccc1O (stereo unspecified) | -27.6 |  | 
CN(C)S(=O)(=O)N1CCN(c2ccccc2Cl)CC1 | 17 | 1.64 µM [falling, partial curve] | 
O=C(Nc1ncc([N+](=O)[O-])s1)C1CCN(S(=O)(=O)c2cnc[nH]2)CC1 | 5.8 | 18.4 µM [falling, partial curve] | 
CCOC(=O)CCCCNC(=O)Nc1ccccc1 | -5.87 | 0.291 µM [falling, single point] | 
Nc1c(C(=O)CSc2ccccn2)c(=O)[nH]c(=O)n1C1CC1 | 1.68 | 6.51 µM [rising, single point] | 
COc1ccc(OC)c(C2=NOC(C(=O)Nc3ccccc3SC)C2)c1 (stereo unspecified) | 21.2 |  | 
O=C1CC(=O)CC(c2ccccc2)C1 | -3.65 |  | 
O=C(Nc1ccccc1Cl)NC1(C(=O)NCC2CCCO2)CCCCC1 (stereo unspecified) | 16.8 |  | 
O=C(O)CCCNCc1ccccc1F | 11.6 | 3.66 µM [falling, single point] | 
Cc1cccc(C(=O)NC(=S)N2CCN(C)CC2)c1 | 63.8 |  | 29.1 µM [rising, single point]
O=C(c1cn(-c2ccccc2)nc1-c1cccc([N+](=O)[O-])c1)N1CCCCC1 | 63.1 |  | 29.1 µM [rising, single point]
NC(=O)c1ccc[n+](CCC[n+]2cccc(C(N)=O)c2)c1 | -20.6 | 29.1 µM [falling, single point] | 
CCOC(=O)N1CCN(C(=O)COc2cc(=O)n(CC)c3ccccc23)CC1 | -27.9 | 6.51 µM [falling, single point] | 
CCOc1ccc(NC(=O)CN2CCN(CC(=O)Nc3ccccc3OC)CC2)cc1 | 21.6 | 6.51 µM [falling, single point] | 
Cc1ccc(NC=C(S(=O)(=O)c2ccccc2)S(=O)(=O)c2ccccc2)c(C)c1 | -24.5 | 0.82 µM [falling, full curve, poor fit] | 

An excerpt taken from the entries so far, for reference:
Compound | cell number change [%] | AC50 [1] | AC50 [2]
O=C(c1ccccc1)N1N=C(c2ccccc2)CC1c1ccccc1O (stereo unspecified) | -27.6 |  | 
CN(C)S(=O)(=O)N1CCN(c2ccccc2Cl)CC1 | 17 | 1.64 µM [falling, partial curve] | 
O=C(Nc1ncc([N+](=O)[O-])s1)C1CCN(S(=O)(=O)c2cnc[nH]2)CC1 | 5.8 | 18.4 µM [falling, partial curve] | 
CCOC(=O)CCCCNC(=O)Nc1ccccc1 | -5.87 | 0.291 µM [falling, single point] | 

The listing continues:

Compound | cell number change [%] | AC50 [1] | AC50 [2]
O=C(COC(=O)CCC1CCCC1)Nc1ccccc1Sc1ccccc1 | -57.4 |  | 16.4 µM [falling, single point]
Cn1c(-c2ccccc2)cc2c3no[n+]([O-])c3ccc21 | -7.11 |  | 
CCOC(=O)C1CCN(S(=O)(=O)c2ccc(NC(=O)OC)cc2)CC1 | 4.53 |  | 
CN(C)C(CNC(C(=O)Nc1ccc([N+](=O)[O-])cc1Br)c1ccccc1)c1ccccc1 (stereo unspecified) | -18.8 |  | 
COC(=O)[C@@]1(Cc2ccc(OC)cc2)[C@H]2c3cc(C(=O)N(C)C)n(CCc4ccc(OC)c(Br)c4)c3C[C@H]2CN1C(=O)c1ccccc1 | 4.84 | 1.84 µM [rising, single point] | 
CC1CCCCC1NC(=O)Cn1cc([N+](=O)[O-])ccc1=O (stereo unspecified) | 3.89 | 4.11 µM [falling, single point] | 
O=C(O)CC1S/C(=N/N=C/C=C/c2ccccc2[N+](=O)[O-])NC1=O (stereo unspecified) | -2.41 | 0.58 µM [falling, single point] | 
CC(=O)N1C(C(=O)O)Cc2c([nH]c3ccccc23)C1C (stereo unspecified) | 11.3 |  | 
CC1Cc2ccccc2N1C(=O)c1ccc2c(c1)nnn2C (stereo unspecified) | 10.3 | 0.731 µM [rising, full curve] | 
O=C(O)C1CCN(c2nc(-c3ccccc3)nc3c2oc2ccccc23)CC1 |  | 0.0231 µM [rising, full curve, poor fit] | 
CCOc1ccc2[nH]c3c(NCCc4ccc(OC)c(OC)c4)ncnc3c2c1 | -20.5 | 0.231 µM [rising, partial curve, poor fit] | 0.184 µM [rising, full curve]
CCOC(=O)C(C)Sc1nc2ccccc2c(=O)n1CC1CCCCC1 (stereo unspecified) | 4.03 | 29.1 µM [falling, single point] | 4.11 µM [rising, single point]
CCC(=O)NC(=S)Nc1ccc(NC(=O)CC)cc1 | -50 |  | 0.231 µM [falling, full curve, poor fit]
CC(Oc1ccc(C(C)(C)C)cc1)C(=O)NCC(c1ccco1)N1CCCC1 (stereo unspecified) | -29.5 | 0.517 µM [falling, full curve] | 
CCOc1cc(C(=O)OCC(=O)c2c(N)n(C)c(=O)n(C)c2=O)cc(OCC)c1OCC | -47.3 | 6.51 µM [rising, single point] | 29.1 µM [falling, single point]
Cc1cc(N/N=C/c2ccccc2O)nc(-c2ccccc2O)n1 | -23.6 | 29.1 µM [falling, single point] | 
CCC1=Nc2cc(C(=O)NCC3CCCO3)ccc2Sc2ccc(Cl)cc21 (stereo unspecified) | -32.1 | 29.1 µM [falling, single point] | 32.6 µM [falling, single point]
OC(CCc1ccncc1)COc1ccccc1 (stereo unspecified) | -17.5 | 0.731 µM [rising, full curve, poor fit] | 
Cc1cccnc1NC(=S)NCc1ccco1 | 39.9 |  | 0.231 µM [rising, full curve, poor fit]
O=C(Nc1cccc2ccccc12)c1cc2c(cc1Br)OCO2 |  | 29.1 µM [rising, single point] | 
Cc1nccn1CCCN1C(=O)CNC1=S | 22.4 |  | 6.51 µM [falling, partial curve, poor fit]

Compound | cell number change [%] | AC50 [1] | AC50 [2]
COc1ccc(CNC(=O)CSc2nc(-c3ccccc3)cc(-c3cccs3)c2C#N)cc1 |  | 0.731 µM [rising, full curve] | 0.259 µM [rising, full curve]
O=C(Nc1ccccc1O)c1ccc(Cl)cc1 | -15.9 | 16.4 µM [falling, single point] | 
O=C(NCc1ccccc1)C1Cc2ccccc2CN1C(=O)c1ccco1 (stereo unspecified) | -23.1 | 0.00461 µM [falling, full curve, poor fit] | 0.00517 µM [falling, full curve, poor fit]
COC(=O)CSc1ncnc2c1cnn2Cc1ccccc1 | 13.6 | 0.0326 µM [falling, full curve, poor fit] | 
Cc1cc2nc(SCCOC(=O)Nc3ccc(Cl)cc3)nc(C)c2cc1C | 24 |  | 
CCOC(=O)/C=C1\CN(Cc2cc(OC)c(OC)c(OC)c2)S(=O)(=O)c2ccc(C(F)(F)F)cc21 | 10.2 |  | 
Cc1cc(NC(=O)CSc2nc3c([nH]c4ccccc43)c(=O)n2-c2ccccc2F)no1 | 15 |  | 
O=C(CSc1nc2ccccc2c(=O)n1-c1ccc(F)cc1F)Nc1ccc2c(c1)CCC2 | 35.8 | 7.31 µM [falling, partial curve] | 3.66 µM [rising, full curve]
CCOC(=O)c1cc(-c2ccc(C#N)cc2)nc2c1c(C)nn2CCC#N |  | 4.11 µM [rising, full curve] | 
Oc1[nH]c2ccc(Br)cc2c1N=Nc1ccc(C(F)(F)F)cn1 | -2.44 |  | 0.58 µM [rising, full curve]
CCCC1=Nc2cc(C(=O)NCCN3CCOCC3)ccc2Sc2ccc(C)cc21 | 9.16 |  | 
Cc1ccc(S(=O)(=O)N(C)CCCC(=O)Nc2cc(C)ccc2C)cc1 | 30.3 | 6.51 µM [rising, single point] | 0.13 µM [rising, full curve, poor fit]
CC(=O)Nc1ccc(NC(=O)c2c(C)nn(Cc3ccccc3Cl)c2C)cc1 |  | 10.3 µM [rising, partial curve, poor fit] | 
CC(=O)NCCOc1c(C)cc(S(N)(=O)=O)cc1C | -27.5 | 29.1 µM [falling, single point] | 4.11 µM [falling, full curve, poor fit]
COc1ccc(N=Cc2c(O)cc(C)oc2=O)cc1 | -8.31 | 0.116 µM [falling, single point] | 
CN(C)c1ccc(N/C=C/C(=O)c2ccc(F)cc2)cc1 | 100 | 11.6 µM [rising, partial curve] | 16.4 µM [rising, partial curve]
COc1ccc(C(=O)c2coc3c2C(=O)C(=O)c2ccccc2-3)cc1 | -68.6 | 29.1 µM [falling, single point] | 23.1 µM [falling, single point]
COc1cc2cc(CCCOC(=O)c3ccco3)oc(=O)c2cc1OC | -14.9 | 1.16 µM [falling, single point] | 1.16 µM [falling, single point]
CCOC(=O)C(NC(C)=O)(Nc1cccc(F)c1)C(F)(F)F (stereo unspecified) |  | 2.31 µM [falling, full curve] | 
COc1ccc2nc(N3CCN(C(=O)c4ccc([N+](=O)[O-])o4)CC3)sc2c1 |  | 1.84 µM [falling, partial curve] | 
